From the supplement of paper PMC10849652
Some of the results follow.

Chains of the proteins cited; added tags and fusions are not shown. Lines headed by an entry give the natural chain unless they say otherwise; changes in a name come on top.
UniProt Q8WTS1: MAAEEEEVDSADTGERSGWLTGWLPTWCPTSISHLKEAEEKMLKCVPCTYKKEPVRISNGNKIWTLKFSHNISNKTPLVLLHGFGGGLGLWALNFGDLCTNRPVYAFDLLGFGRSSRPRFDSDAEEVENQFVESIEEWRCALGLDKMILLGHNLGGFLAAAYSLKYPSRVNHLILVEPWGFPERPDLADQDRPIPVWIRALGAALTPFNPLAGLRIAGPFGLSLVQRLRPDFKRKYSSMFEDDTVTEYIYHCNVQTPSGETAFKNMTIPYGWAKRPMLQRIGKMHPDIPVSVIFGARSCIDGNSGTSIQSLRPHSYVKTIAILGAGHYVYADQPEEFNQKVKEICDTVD
UniProt Q6JQN1: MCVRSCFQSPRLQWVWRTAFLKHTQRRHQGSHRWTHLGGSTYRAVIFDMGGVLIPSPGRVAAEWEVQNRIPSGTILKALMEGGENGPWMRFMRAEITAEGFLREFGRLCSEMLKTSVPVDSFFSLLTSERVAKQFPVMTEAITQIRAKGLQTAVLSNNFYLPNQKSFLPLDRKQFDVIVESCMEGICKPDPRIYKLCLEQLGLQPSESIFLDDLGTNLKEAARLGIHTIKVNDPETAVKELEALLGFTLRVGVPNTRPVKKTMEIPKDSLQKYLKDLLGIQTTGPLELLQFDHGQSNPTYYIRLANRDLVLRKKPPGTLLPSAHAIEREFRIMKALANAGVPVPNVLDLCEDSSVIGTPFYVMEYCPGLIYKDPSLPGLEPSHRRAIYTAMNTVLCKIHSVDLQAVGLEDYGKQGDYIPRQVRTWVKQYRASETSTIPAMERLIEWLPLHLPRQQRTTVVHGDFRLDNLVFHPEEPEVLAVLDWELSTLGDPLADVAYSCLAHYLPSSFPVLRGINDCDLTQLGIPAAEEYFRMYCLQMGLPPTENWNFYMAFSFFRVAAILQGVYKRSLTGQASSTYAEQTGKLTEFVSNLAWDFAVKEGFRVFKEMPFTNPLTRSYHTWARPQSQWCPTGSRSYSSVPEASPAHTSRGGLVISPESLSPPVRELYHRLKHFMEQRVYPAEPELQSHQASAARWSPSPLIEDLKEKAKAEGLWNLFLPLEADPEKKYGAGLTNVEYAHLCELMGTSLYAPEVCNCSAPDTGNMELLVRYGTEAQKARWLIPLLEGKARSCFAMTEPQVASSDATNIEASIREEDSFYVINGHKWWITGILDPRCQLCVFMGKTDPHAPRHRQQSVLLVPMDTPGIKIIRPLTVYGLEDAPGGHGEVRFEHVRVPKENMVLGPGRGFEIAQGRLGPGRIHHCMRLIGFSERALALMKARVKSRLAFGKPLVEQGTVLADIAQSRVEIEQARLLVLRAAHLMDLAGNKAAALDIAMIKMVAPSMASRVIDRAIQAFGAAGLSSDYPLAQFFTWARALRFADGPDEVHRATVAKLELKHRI
UniProt Q9NX38: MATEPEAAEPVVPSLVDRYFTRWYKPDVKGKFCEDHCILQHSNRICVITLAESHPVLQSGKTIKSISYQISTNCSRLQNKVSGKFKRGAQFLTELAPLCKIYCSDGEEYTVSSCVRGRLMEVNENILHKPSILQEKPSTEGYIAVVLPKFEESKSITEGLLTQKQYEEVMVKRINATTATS
UniProt Q96M93: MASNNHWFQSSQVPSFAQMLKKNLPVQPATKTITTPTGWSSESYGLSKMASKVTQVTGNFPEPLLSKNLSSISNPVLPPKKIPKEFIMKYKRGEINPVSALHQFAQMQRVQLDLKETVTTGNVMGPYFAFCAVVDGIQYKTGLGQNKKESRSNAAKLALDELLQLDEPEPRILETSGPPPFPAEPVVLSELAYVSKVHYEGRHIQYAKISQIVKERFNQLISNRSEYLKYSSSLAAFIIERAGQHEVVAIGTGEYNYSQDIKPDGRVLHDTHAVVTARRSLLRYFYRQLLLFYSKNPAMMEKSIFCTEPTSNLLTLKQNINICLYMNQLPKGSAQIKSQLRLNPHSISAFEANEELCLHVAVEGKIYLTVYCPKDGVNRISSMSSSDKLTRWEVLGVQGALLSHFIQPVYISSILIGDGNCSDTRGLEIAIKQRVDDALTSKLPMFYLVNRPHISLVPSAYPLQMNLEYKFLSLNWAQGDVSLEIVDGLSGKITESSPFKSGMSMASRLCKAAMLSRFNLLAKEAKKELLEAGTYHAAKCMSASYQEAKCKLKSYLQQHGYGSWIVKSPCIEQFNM
UniProt Q96QU6: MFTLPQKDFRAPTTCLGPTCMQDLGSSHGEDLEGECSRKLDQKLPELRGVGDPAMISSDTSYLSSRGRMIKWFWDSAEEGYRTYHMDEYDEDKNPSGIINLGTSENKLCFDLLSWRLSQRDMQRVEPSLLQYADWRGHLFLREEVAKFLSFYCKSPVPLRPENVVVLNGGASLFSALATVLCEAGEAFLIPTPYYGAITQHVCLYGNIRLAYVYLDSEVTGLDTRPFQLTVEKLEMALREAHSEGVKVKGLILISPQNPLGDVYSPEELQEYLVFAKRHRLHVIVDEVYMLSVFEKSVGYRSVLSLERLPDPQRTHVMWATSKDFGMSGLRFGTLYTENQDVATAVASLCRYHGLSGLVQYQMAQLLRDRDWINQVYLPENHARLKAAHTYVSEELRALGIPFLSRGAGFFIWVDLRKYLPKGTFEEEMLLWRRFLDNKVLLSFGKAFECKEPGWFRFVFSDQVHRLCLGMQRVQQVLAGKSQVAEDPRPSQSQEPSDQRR
UniProt Q2M3G0: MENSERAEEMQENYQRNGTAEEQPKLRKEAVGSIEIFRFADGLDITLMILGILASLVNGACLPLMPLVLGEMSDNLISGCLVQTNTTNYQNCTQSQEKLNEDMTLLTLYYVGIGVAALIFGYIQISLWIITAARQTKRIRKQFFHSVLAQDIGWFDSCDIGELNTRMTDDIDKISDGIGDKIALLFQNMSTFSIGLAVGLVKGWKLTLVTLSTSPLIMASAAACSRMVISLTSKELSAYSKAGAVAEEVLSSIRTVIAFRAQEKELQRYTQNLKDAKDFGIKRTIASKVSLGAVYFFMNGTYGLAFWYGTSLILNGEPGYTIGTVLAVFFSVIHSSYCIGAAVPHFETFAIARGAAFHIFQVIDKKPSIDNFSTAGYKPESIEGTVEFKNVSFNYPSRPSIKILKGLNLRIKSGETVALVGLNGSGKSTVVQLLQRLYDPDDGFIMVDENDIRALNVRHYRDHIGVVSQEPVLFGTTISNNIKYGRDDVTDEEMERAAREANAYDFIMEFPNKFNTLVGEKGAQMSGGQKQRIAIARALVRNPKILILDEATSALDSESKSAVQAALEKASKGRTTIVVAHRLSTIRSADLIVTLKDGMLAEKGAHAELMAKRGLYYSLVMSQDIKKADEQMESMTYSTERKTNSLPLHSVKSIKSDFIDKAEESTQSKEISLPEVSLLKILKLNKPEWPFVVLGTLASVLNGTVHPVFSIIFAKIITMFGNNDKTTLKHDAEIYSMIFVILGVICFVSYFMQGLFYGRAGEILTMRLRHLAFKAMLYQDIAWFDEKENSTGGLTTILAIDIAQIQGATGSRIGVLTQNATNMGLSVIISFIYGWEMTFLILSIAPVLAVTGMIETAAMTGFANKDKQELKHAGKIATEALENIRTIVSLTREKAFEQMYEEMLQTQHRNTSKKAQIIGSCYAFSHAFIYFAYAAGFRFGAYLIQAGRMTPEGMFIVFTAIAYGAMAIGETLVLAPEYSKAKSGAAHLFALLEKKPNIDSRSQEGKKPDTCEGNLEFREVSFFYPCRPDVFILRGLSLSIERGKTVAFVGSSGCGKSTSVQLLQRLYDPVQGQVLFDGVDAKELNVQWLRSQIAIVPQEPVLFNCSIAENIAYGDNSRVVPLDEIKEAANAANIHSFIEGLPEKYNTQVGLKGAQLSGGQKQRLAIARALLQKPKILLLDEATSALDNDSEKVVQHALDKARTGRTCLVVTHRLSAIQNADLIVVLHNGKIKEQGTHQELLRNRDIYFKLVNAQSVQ
UniProt Q4L235: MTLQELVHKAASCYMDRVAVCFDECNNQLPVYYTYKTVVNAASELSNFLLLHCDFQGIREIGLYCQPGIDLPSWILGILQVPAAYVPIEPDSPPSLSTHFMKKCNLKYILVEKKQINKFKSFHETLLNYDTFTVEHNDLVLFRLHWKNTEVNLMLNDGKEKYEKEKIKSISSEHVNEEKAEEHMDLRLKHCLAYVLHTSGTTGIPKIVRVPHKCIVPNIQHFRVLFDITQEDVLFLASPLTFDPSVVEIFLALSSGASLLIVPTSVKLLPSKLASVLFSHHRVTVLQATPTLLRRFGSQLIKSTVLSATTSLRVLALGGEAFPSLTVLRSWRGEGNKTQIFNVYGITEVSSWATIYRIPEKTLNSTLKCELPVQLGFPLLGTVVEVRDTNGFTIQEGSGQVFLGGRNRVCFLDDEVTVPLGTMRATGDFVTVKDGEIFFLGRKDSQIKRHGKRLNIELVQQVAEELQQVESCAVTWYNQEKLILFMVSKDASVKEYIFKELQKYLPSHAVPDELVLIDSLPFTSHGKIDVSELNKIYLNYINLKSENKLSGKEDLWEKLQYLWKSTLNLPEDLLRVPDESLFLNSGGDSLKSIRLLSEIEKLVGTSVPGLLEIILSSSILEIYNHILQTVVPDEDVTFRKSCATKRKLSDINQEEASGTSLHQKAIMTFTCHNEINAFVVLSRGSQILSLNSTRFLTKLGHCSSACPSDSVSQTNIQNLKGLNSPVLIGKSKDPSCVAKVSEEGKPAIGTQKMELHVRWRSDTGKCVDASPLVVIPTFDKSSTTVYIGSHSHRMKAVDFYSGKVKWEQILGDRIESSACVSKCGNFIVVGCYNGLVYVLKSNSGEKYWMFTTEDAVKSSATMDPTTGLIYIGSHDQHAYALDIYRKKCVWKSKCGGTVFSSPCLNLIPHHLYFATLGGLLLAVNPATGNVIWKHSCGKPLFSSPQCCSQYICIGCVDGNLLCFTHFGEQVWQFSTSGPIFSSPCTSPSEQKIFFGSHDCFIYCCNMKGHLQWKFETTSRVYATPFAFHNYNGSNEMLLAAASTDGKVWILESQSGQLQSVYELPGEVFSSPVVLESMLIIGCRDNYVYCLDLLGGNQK
UniProt Q86TW2: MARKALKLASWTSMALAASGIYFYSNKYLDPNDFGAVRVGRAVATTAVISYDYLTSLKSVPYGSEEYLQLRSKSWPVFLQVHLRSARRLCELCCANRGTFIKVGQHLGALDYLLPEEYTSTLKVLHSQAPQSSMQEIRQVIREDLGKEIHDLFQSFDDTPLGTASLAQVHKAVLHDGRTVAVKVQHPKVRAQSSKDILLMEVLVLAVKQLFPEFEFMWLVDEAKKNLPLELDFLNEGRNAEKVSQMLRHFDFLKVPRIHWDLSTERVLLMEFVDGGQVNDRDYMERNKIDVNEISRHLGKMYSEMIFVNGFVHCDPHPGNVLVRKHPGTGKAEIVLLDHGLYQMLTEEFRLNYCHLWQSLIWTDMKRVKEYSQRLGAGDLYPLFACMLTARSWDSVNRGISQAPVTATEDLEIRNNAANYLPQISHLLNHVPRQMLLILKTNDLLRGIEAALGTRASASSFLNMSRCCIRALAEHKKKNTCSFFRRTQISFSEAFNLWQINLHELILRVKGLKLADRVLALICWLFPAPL
UniProt Q9BV23: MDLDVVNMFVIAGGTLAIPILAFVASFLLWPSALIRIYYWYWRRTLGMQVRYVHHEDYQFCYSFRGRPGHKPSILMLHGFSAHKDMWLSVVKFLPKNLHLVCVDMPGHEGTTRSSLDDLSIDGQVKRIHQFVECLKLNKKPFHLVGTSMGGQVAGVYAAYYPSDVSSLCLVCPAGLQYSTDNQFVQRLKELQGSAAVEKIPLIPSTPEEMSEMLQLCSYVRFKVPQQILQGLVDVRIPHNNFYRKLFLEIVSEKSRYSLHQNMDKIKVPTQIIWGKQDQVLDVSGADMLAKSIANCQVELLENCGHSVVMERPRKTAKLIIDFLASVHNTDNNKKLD
UniProt Q86V21: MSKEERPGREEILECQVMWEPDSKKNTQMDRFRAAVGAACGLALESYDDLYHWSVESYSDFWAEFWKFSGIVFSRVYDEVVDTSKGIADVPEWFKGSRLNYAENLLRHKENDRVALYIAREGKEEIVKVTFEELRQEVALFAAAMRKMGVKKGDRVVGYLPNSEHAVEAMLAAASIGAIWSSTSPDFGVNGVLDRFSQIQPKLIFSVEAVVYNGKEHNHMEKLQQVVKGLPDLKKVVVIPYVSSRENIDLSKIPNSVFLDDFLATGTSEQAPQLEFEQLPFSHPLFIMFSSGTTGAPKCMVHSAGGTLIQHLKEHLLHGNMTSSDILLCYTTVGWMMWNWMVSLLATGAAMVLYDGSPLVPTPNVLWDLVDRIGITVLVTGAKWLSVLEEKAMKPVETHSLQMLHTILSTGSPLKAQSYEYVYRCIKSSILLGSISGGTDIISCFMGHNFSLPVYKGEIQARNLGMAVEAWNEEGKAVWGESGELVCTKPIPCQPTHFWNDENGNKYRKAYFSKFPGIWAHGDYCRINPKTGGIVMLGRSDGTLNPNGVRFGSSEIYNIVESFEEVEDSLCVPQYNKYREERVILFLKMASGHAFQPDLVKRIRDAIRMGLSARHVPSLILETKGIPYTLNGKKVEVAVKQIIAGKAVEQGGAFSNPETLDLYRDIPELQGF

Compound: C1=CC2=C(C=CC(=C2)/C=C\3/C(=O)NC(=NCC4=CC=CS4)S3)N=C1
Test: log2 fold change, soluble protein after heating vs DMSO (PISA); higher = thermal stabilisation; K562 cells, 10 uM, 30 min; active = over 0.2 and 3.5 SD of the protein, either way, in both replicates (recomputed)
How it was run: (§1)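 K562 cells at 2×10^6 cells/mL were given 10 μM compound for 30 min. Aliquots then went through 3 min of heating across 48°C-58°C, were pooled, and were extracted in PBS with 0.5% NP-40 at 4°C, and the supernatant after 21,000xg for 90 min was quantified by TMTpro 16plex LC-MS/MS with channel sums equalised. Thermal stability relative to control samples, from duplicates, is given as log2 fold change.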

log2 fold change, inactive:
ACTB, A0A2R8YEA7 -0.019
ACAA2 (UniProt K7ER88) -0.083
A2ML1 (UniProt A8K2U0) 0.325
ABCB1 (UniProt P08183) 0.112
ACTG1 (UniProt K7EM38) 0.343
ADAMTS13 (UniProt Q76LX8) -0.043
AARSD1 (UniProt Q9BTE6) -0.063
ACOT7 (UniProt K7EKP8) 0.09
ABCB4 (UniProt P21439) 0.025
ABHD5 (UniProt Q8WTS1) 0.108
ACAD10 isoform 5 (UniProt Q6JQN1) 0.138
ACAT1, A0A5F9ZHJ0 0.183
ABITRAM (UniProt Q9NX38) 0.018
ABCF1 (UniProt Q5STZ8) -0.128

Compound: C1=CC2=NC=CN=C2C=C1/C=C/3\C(=O)NC(=O)S3
Test: as above
How it was run: as §1

log2 fold change, inactive:
ACTB, A0A2R8YEA7 0.174
ADAD1 (UniProt Q96M93) 0.031
ACAA2 (UniProt K7ER88) 0.261
ABHD4 (UniProt Q8TB40) -0.26
AARSD1 (UniProt Q9BTE6) -0.117
ACCS (UniProt Q96QU6) -0.071
ABHD5 (UniProt Q8WTS1) -0.141
ACAT1, A0A5F9ZHJ0 0.044
ABCB5 (UniProt Q2M3G0) -0.069
ABL2 (UniProt P42684) 0.101
ABRACL (UniProt Q9P1F3) 0.161
ACSL6 isoform 1 (UniProt Q9UKU0) -0.083
ABITRAM (UniProt Q9NX38) 0.023
ABCF1 (UniProt Q5STZ8) -0.08
ABCA2 isoform 3 (UniProt Q9BZC7) -0.224
AASDH (UniProt Q4L235) 0.158
ABCA8 isoform 3 (UniProt O94911) -0.173

Compound: C1=CC=C(C=C1)C2=NC(=C(N2)C3=CC=NC=C3)C4=CC(=C(C=C4)Cl)O
Test: as above
How it was run: as §1

log2 fold change, inactive:
ACTB, A0A2R8YEA7 0.004
ACTR3B (UniProt Q9P1U1) -0.078
ADAD1 (UniProt Q96M93) -0.405
A2ML1 (UniProt A8K2U0) -0.288
ACTG1 (UniProt K7EM38) 0.212
ACCS (UniProt Q96QU6) 0.11
ABCB4 (UniProt P21439) -0.011
ADCK1 (UniProt Q86TW2) -0.008
ABCB11 (UniProt O95342) 0.079
ABHD5 (UniProt Q8WTS1) -0.073
ABHD6 (UniProt Q9BV23) 0.069
ACAD10 isoform 5 (UniProt Q6JQN1) -0.509
ACTG1 (UniProt I3L4N8) 0.108
ABL2 (UniProt P42684) -0.061
ABRACL (UniProt Q9P1F3) 0.083
AACS (UniProt Q86V21) -0.037
ACSL6 isoform 1 (UniProt Q9UKU0) -0.061
ABITRAM (UniProt Q9NX38) -0.05
ACSF2 isoform 2 (UniProt Q96CM8) 0.135
ABCA2 isoform 3 (UniProt Q9BZC7) -0.107
AASDH (UniProt Q4L235) 0.003
